This is one part of the list. These are further read-outs of the screen, such as a control signal, another cell line or another target. No call is given for them. Compounds called inactive in the main read-out are mostly missing here. The note in brackets gives the kind of curve behind each potency; many fits are weak.
Experiment: qHTS Assay for Lipid Storage Modulators in Drosophila S3 Cells;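 for cell number change: cells counted by Cell Tracker Red CMTPX staining in the red channel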
Settings: BODIPY lipid droplet fluorescence, 18-24 h; for cell number change: measured here: cell count max response, cells fed with added oleic acid
In short: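 Drosophila S3 cells loaded with oleic acid (400 uM, as added) and compounds at several concentrations; lipid droplets imaged by 488-nm laser-scanning cytometry, 500–530 nm intensity and object ratio to cell channel. Percent activity normalized to 20 uM Triacsin C.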

[1] = measured here: lipid fluorescence (Fed channel) AC50, cells fed with added oleic acid
[2] = measured here: cell number channel AC50, cells fed with added oleic acid

| Structure (SMILES) | cell number change | AC50 [1] | AC50 [2] |
| --- | --- | --- | --- |
| Cc1ccc(S(=O)(=O)N/N=C\c2ccc([N+](=O)[O-])o2)cc1C | -9.19% | – | – |
| Cc1ccc(NC(=O)C2CCCN(C3=NS(=O)(=O)c4ccccc43)C2)c(O)c1 (stereo not given) | -7.96% | 5.17 µM [falling, partial curve, poor fit] | – |
| COc1ccccc1N=C(C)C1=C(O)CSC1=O | 59.1% | – | 18.4 µM [rising, single point] |
| Cn1c(=O)c2nc3ccccc3nc2n(C)c1=O | 20.3% | 14.6 µM [rising, partial curve, poor fit] | – |
| CCn1c(C(=O)N2CCC(Cc3ccccc3)CC2)cc2sccc21 | -10.9% | 1.84 µM [falling, single point] | – |
| CCNC(=O)COC(=O)C1C(C(=O)OCC)=C(C)NC(C)=C1C(=O)OCC | 32.8% | 4.11 µM [rising, single point] | 14.6 µM [rising, partial curve, poor fit] |
| Cc1ccccc1NC(=O)c1c([N+](=O)[O-])cnn1C | 18.4% | – | – |
| Cn1c(Cn2nnc3ccccc32)nnc1SCC(N)=O | 6.54% | 29.1 µM [falling, single point] | – |
| CCOc1ccc(-c2[nH]ncc2Oc2ccccc2OCC)c(O)c1 | -65.5% | 20.6 µM [falling, single point] | 29.1 µM [falling, single point] |
| C[C@H]1O[C@@H](O[C@H]2[C@@H](O)C[C@H](O[C@H]3[C@@H](O)C[C@H](O[C@H]4CC[C@@]5(C)[C@H](CC[C@@H]6[C@@H]5C[C@@H](O)[C@]5(C)[C@@H](C7=CC(=O)OC7)CC[C@]65O)C4)O[C@@H]3C)O[C@@H]2C)C[C@H](O)[C@@H]1O | -21.8% | 3.66 µM [rising, full curve, poor fit] | – |
| CCc1nc2ccccc2c(C(=O)Oc2ccc(C(=O)OC)cc2)c1C | -35.8% | 10.3 µM [rising, partial curve] | – |
| Cc1cc([N+](=O)[O-])ccc1NC(=O)c1cncc(Br)c1 | 6.68% | 20.6 µM [rising, partial curve] | – |
| Cc1ccc(S(=O)(=O)/N=C(\N)Nc2nc(C)c3ccccc3n2)cc1 | 12.9% | 0.0651 µM [rising, full curve, poor fit] | – |
| O=C(CN1C(=O)CC(c2ccccc2)=Nc2ccccc21)NCc1ccco1 | – | 2.31 µM [rising, partial curve] | 3.26 µM [rising, single point] |
| COc1ccc(/C=N/N2CCN(c3ccccc3OC)CC2)cc1Br | 5.84% | 29.1 µM [falling, single point] | – |

At a glance, 2 of the compounds above.

| Structure (SMILES) | cell number change | AC50 [1] | AC50 [2] |
| --- | --- | --- | --- |
| Cc1cc([N+](=O)[O-])ccc1NC(=O)c1cncc(Br)c1 | 6.68% | 20.6 µM [rising, partial curve] | – |
| Cc1ccc(S(=O)(=O)/N=C(\N)Nc2nc(C)c3ccccc3n2)cc1 | 12.9% | 0.0651 µM [rising, full curve, poor fit] | – |
